Laboratory results reported in the supplement of paper PMC8256030.
The other results are listed elsewhere or left out. Repeats in this data set agree poorly, so a single value says little.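 HEK293T cells were given each compound shortly before transfection with a reporter in which red mCherry is followed by the SARS-CoV-2 frameshift element and then GFP in the −1 frame, so GFP appears only after frameshifting.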

These molecules were tested on SARS-CoV-2 -1 PRF reporter mCherry-FSE-GFP(-1) (assay: percent effect, decrease of GFP/mCherry ratio (-1 PRF reporter) relative to controls; higher = stronger frameshift inhibition). Details: 10 µM; 24 h; HEK293T.
Molecule CC(c1ccccc1)C1Nc2cc(Cl)c(S(N)(=O)=O)cc2S(=O)(=O)N1 (stereo not drawn) [bemetizide] has a percent effect of 1.59%.
CN(C)CCn1cnc2c1c(=O)n(C)c(=O)n2C [dimethazan] was tested, and the percent effect was -4.54%.
In the case of CC(=O)O[C@H]1C(=O)[C@@]2(C)[C@H]([C@H](OC(=O)c3ccccc3)[C@]3(O)C[C@H](OC(=O)[C@H](O)[C@@H](NC(=O)c4ccccc4)c4ccccc4)C(C)=C1C3(C)C)[C@]1(OC(C)=O)CO[C@@H]1C[C@@H]2O [paclitaxel], the percent effect is reported as -25.8%.
CO/N=C(\C(=O)N[C@@H]1C(=O)N2C(C(=O)O)=C(CSc3nnnn3C)CS[C@H]12)c1csc(N)n1 [Cefmenoxime] gave a percent effect of -4.49%.
With CCCCC(=O)O[C@]1(C(=O)CO)CC[C@H]2[C@@H]3CCC4=CC(=O)CC[C@]4(C)[C@H]3[C@@H](O)C[C@@]21C the percent effect was -0.651%.
CCCCc1ccc2[nH]c(NC(=O)OC)nc2c1 [parbendazole] showed a percent effect of -6.37%.
CC(=O)N(CC(O)CO)c1c(I)c(C(=O)NCCO)c(I)c(C(=O)NCC(O)CO)c1I (stereo not drawn) [ioxilan] was tested, and the percent effect was -1.33%.
For COc1cc(-c2ccc(=O)[nH]n2)ccc1OC(F)F [zardaverine], the percent effect was 5.19%.
Cc1c(Nc2ncccc2C(=O)O)cccc1C(F)(F)F gave a percent effect of -3.77%.
O=C(/C=C/c1ccc2c(c1)OCO2)N1CCN(CC(=O)N2CCCC2)CC1 [cinoxopazide] was tested, and the percent effect was -0.358%.
C[C@@H](O)[C@H]1C(=O)N2C(C(=O)O)=C(SCCN=CN)C[C@H]12 gave a percent effect of -5.04%.
Molecule CC(C)(Oc1ccccc1)C(=O)OCCN1CCOCC1 [promolate] has a percent effect of -6.21%.
Work on NC(N)=NS(=O)(=O)c1ccc(N)cc1 yielded a percent effect of -2.68%.
Molecule CN1CCC(Nc2ncc3ncnc(Nc4ccc(F)c(Cl)c4)c3n2)CC1 [falnidamol] has a percent effect of -3.66%.
O=c1[nH]c(=O)c2ccccc2o1 [carsalam] showed a percent effect of -3.77%.
In the case of COc1ccc(N(CCCC(=O)O)C(=O)c2ccc(Cl)cc2)cc1 [clanobutin], the percent effect is reported as -1.06%.
For CCCC1O[C@@H]2C[C@H]3[C@@H]4CCC5=CC(=O)C=C[C@]5(C)[C@H]4[C@@H](O)C[C@]3(C)[C@]2(C(=O)CO)O1 (stereo partly drawn) [budesonide], the percent effect was -1.26%.
Work on CN(C)NC(=O)c1ccc(Cl)c(S(N)(=O)=O)c1 [alipamide] yielded a percent effect of -6.29%.
